Laboratory results reported in PMC8287938, “Identification and structural analysis of the Schizosaccharomyces pombe SMN complex” (Nucleic Acids Research, 2021).
No constants are given. Whether binding was seen depends on the method and setting. Binding can be weak; no strength is given. For part of these data: Where a sequence is shown, tags or fusion partners need not be part of it. For part of these data: Binding seen in cells or lysates may run through a third protein.

The chains behind the UniProt entries cited, without tags or fusion partners. Where a name states a change or a piece, a line headed by the entry shows the natural chain unless it says otherwise.
UniProt Q9USY8: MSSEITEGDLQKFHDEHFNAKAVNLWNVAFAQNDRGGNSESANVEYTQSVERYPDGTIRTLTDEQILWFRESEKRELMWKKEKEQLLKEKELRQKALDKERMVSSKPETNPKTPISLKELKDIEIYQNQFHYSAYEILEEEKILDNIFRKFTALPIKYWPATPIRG
UniProt G2TRR1: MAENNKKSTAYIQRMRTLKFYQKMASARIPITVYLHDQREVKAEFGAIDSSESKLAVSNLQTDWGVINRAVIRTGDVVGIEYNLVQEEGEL

Experiments:
[1] = target: His6-SpG8 (S. pombe) (UniProt Q9USY8); test: pull-down; co-expression in E. coli from polycistronic constructs, Ni-NTA purification through the His6-tagged subunit, SDS-PAGE
[2] = target: T1, SpSMN (two-hybrid fusion) (S. pombe) (UniProt Q09808); test: two-hybrid; pASΔΔ baits in CG1945 mated with pACT2st preys in Y187; growth on –Trp–Leu–His plates, 30°C, 3–5 days
T1 sequence: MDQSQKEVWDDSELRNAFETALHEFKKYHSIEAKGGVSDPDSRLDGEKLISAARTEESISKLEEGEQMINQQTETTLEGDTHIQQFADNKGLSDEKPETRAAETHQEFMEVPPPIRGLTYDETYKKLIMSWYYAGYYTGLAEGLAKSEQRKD

[3] = target: T2, His6-SpSMN (S. pombe) (UniProt Q09808); test: pull-down; co-expression in E. coli from polycistronic constructs, Ni-NTA purification through the His6-tagged subunit, SDS-PAGE
T2 sequence: T1 sequence

[4] = target: T3, His6-SpG2^ΔN80 (S. pombe) (UniProt P0CU08); test: as above
T3 sequence: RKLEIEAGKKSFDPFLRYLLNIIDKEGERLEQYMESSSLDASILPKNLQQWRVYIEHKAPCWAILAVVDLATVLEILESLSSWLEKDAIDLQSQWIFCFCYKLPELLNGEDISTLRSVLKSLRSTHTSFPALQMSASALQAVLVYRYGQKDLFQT

Row | binding [4] | Substance | further results
1 | – | SpG7 (untagged, E. coli) (from UniProt G2TRR1) | binding [1]: binds
2 | – | SpG8 (two-hybrid fusion) (from UniProt Q9USY8) | binding [2]: binds
3 | – | SpG8 (untagged, E. coli) (S. pombe) | binding [3]: binds
4 | binds | SpSMN^Δ36–119 (S. pombe) (domain or fragment) | –
5 | binds | SpSMN^Δ36–119A134E (S. pombe) (domain or fragment) | –
6 | binds | SpSMN^Δ36–119S130D (S. pombe) (domain or fragment) | –
